Data as given in PubChem BioAssay AID1159578 (Peter MacCallum Cancer Centre, 2015).
The deposit covers about 18,000 reagents; shown is a part drawn at random. About 1,030 of all reagents (5.7%) count as active. 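Inactive calls also include pools with fewer than 3300 nuclei, whose migration was not assessed.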 Raw values vary from plate to plate and are shown uncorrected.

- Aim: 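Knock-downs that alter how fast lymphatic endothelial cells migrate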 (primary screen)
- System: human lymphatic endothelial cells
- Knock-down reagent: siRNA pool against human genes, 40 nM
- Duration: 48 h after transfection
- Read-out: 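Cells stained with dye and imaged after a scratch; covered wound area and nuclei counted, duplicates averaged, migration set against mock wells and turned into a robust z-score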
- Scale: migration robust z-score: higher = faster migration into the scratch; migration relative to mock: higher = more scratch area covered than mock; nuclei per well: higher = more cells in the well
- Active means: 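Migration changed when robust z exceeds 2 or falls below -2 and mean nuclei number is at least 3300; otherwise not called changed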
- Calls: active = migration changed; inactive = no migration change, or too few cells

gene | migration robust z-score | migration class with cell-count check | migration relative to mock | nuclei per well, duplicate mean | call
SLC26A10P | -0.26 | migration z between -2 and 2; enough cells | 0.76 | 5718 | inactive
HMBS (hydroxymethylbilane synthase) | -0.02 | migration z between -2 and 2; enough cells | 0.8 | 5306 | inactive
BMPR2 (bone morphogenetic protein receptor type 2) | -0.83 | migration z between -2 and 2; enough cells | 0.64 | 5529 | inactive
CLDN9 (claudin 9) | -1.12 | under 3300 nuclei; migration not judged | 0.6 | 3182 | inactive
NDUFB3 (NADH:ubiquinone oxidoreductase subunit B3) | -3.69 | under 3300 nuclei; migration not judged | -0.08 | 2754 | inactive
CD3G (CD3 gamma subunit of T-cell receptor complex) | -0.83 | migration z between -2 and 2; enough cells | 0.64 | 6341 | inactive
CCNA1 (cyclin A1) | 0.08 | migration z between -2 and 2; enough cells | 0.82 | 5827 | inactive
PRXL2B (peroxiredoxin like 2B) | -1.21 | migration z between -2 and 2; enough cells | 0.57 | 5824 | inactive
CYP2A6 (cytochrome P450 family 2 subfamily A member 6) | 0.9 | migration z between -2 and 2; enough cells | 1.12 | 7277 | inactive
PPARG (peroxisome proliferator activated receptor gamma) | 0.99 | migration z between -2 and 2; enough cells | 1 | 3378 | inactive
FHOD3 (formin homology 2 domain containing 3) | -0.58 | migration z between -2 and 2; enough cells | 0.74 | 4450 | inactive
CHRM4 (cholinergic receptor muscarinic 4) | 1.14 | migration z between -2 and 2; enough cells | 1.02 | 7039 | inactive
DCAF1 (DDB1 and CUL4 associated factor 1) | -0.88 | migration z between -2 and 2; enough cells | 0.66 | 6163 | inactive
SPRYD7 (SPRY domain containing 7) | -0.45 | migration z between -2 and 2; enough cells | 0.78 | 6107 | inactive
TMEM14B (transmembrane protein 14B) | -0.55 | migration z between -2 and 2; enough cells | 0.74 | 4872 | inactive
IPO5 (importin 5) | 0.8 | migration z between -2 and 2; enough cells | 0.96 | 5352 | inactive
SPATA20 (spermatogenesis associated 20) | -0.45 | migration z between -2 and 2; enough cells | 0.77 | 5230 | inactive
SLC30A3 | -0.08 | migration z between -2 and 2; enough cells | 0.86 | 5860 | inactive
RND2 (Rho family GTPase 2) | -1.5 | migration z between -2 and 2; enough cells | 0.52 | 4802 | inactive
CPOX (coproporphyrinogen oxidase) | 0.13 | migration z between -2 and 2; enough cells | 0.83 | 4404 | inactive
HAAO (3-hydroxyanthranilate 3,4-dioxygenase) | -1.77 | migration z between -2 and 2; enough cells | 0.46 | 5780 | inactive
ADAM18 (ADAM metallopeptidase domain 18) | -1.9 | migration z between -2 and 2; enough cells | 0.44 | 4382 | inactive
HOXC9 (homeobox C9) | 0.9 | migration z between -2 and 2; enough cells | 0.98 | 5105 | inactive
FOXK2 (forkhead box K2) | 1.04 | migration z between -2 and 2; enough cells | 1 | 5367 | inactive
CYP3A7 (cytochrome P450 family 3 subfamily A member 7) | -0.26 | migration z between -2 and 2; enough cells | 0.82 | 6434 | inactive
TOMM70 (translocase of outer mitochondrial membrane 70) | 0.32 | migration z between -2 and 2; enough cells | 0.97 | 6206 | inactive
PCDHGA10 (protocadherin gamma subfamily A, 10) | -0.93 | migration z between -2 and 2; enough cells | 0.64 | 5474 | inactive
RNF150 (ring finger protein 150) | 1.5 | migration z between -2 and 2; enough cells | 1.09 | 6536 | inactive
PRADC1 (protease associated domain containing 1) | 0.46 | migration z between -2 and 2; enough cells | 0.9 | 5252 | inactive
FOXQ1 (forkhead box Q1) | -1.45 | migration z between -2 and 2; enough cells | 0.51 | 5618 | inactive
CUX2 (cut like homeobox 2) | -1.43 | migration z between -2 and 2; enough cells | 0.52 | 4642 | inactive
ADIG (adipogenin) | 0.04 | migration z between -2 and 2; enough cells | 0.9 | 5842 | inactive
C5AR1 (complement C5a receptor 1) | -2.96 | migration z below -2; enough cells | 0.24 | 4164 | active
PCK1 (phosphoenolpyruvate carboxykinase 1) | -1.22 | migration z between -2 and 2; enough cells | 0.57 | 4108 | inactive
PLAUR (plasminogen activator, urokinase receptor) | 0.83 | migration z between -2 and 2; enough cells | 0.96 | 5302 | inactive
BLTP3B (bridge-like lipid transfer protein family member 3B) | 0.01 | migration z between -2 and 2; enough cells | 0.88 | 6062 | inactive
MAPK15 (mitogen-activated protein kinase 15) | -0.86 | migration z between -2 and 2; enough cells | 0.64 | 4122 | inactive
RNF144B (ring finger protein 144B) | 0.31 | migration z between -2 and 2; enough cells | 0.86 | 6011 | inactive
HOXA3 (homeobox A3) | 0.96 | migration z between -2 and 2; enough cells | 1.14 | 6506 | inactive
RECK (reversion inducing cysteine rich protein with kazal motifs) | 0.03 | migration z between -2 and 2; enough cells | 0.9 | 5718 | inactive
MYL2 (myosin light chain 2) | -0.51 | migration z between -2 and 2; enough cells | 0.75 | 6657 | inactive
BBS5 (Bardet-Biedl syndrome 5) | 0.03 | migration z between -2 and 2; enough cells | 0.9 | 3715 | inactive
ZNF599 (zinc finger protein 599) | 0.3 | migration z between -2 and 2; enough cells | 0.96 | 6517 | inactive
HRCT1 (histidine rich carboxyl terminus 1) | 0.05 | migration z between -2 and 2; enough cells | 0.9 | 5134 | inactive
AGTPBP1 (ATP/GTP binding carboxypeptidase 1) | -0.24 | migration z between -2 and 2; enough cells | 0.76 | 5294 | inactive
AGT (angiotensinogen) | 0.05 | migration z between -2 and 2; enough cells | 0.82 | 6562 | inactive
SPCS1 (signal peptidase complex subunit 1) | -0.83 | migration z between -2 and 2; enough cells | 0.64 | 4556 | inactive
TFF1 (trefoil factor 1) | -1.31 | migration z between -2 and 2; enough cells | 0.54 | 4232 | inactive
TEP1 (telomerase associated protein 1) | -1.74 | migration z between -2 and 2; enough cells | 0.47 | 4340 | inactive
MAP2K6 (mitogen-activated protein kinase kinase 6) | -0.88 | migration z between -2 and 2; enough cells | 0.64 | 6028 | inactive
MYMK (myomaker, myoblast fusion factor) | -0.67 | migration z between -2 and 2; enough cells | 0.71 | 6760 | inactive
ANO6 (anoctamin 6) | -0.28 | migration z between -2 and 2; enough cells | 0.81 | 5774 | inactive
EIF3G (eukaryotic translation initiation factor 3 subunit G) | -2.08 | migration z below -2; enough cells | 0.4 | 4972 | active
PLSCR1 (phospholipid scramblase 1) | -0.94 | migration z between -2 and 2; enough cells | 0.62 | 5605 | inactive
ZNF17 (zinc finger protein 17) | -0.4 | migration z between -2 and 2; enough cells | 0.78 | 6944 | inactive
SLC17A2 | 1.36 | migration z between -2 and 2; enough cells | 1.23 | 6440 | inactive
EPS8L2 (EPS8 signaling adaptor L2) | 1.03 | migration z between -2 and 2; enough cells | 1.16 | 4102 | inactive

Targets above whose gene name begins with B or b (3):
gene | migration robust z-score | migration class with cell-count check | migration relative to mock | nuclei per well, duplicate mean | call
BMPR2 (bone morphogenetic protein receptor type 2) | -0.83 | migration z between -2 and 2; enough cells | 0.64 | 5529 | inactive
BLTP3B (bridge-like lipid transfer protein family member 3B) | 0.01 | migration z between -2 and 2; enough cells | 0.88 | 6062 | inactive
BBS5 (Bardet-Biedl syndrome 5) | 0.03 | migration z between -2 and 2; enough cells | 0.9 | 3715 | inactive
